Literature values as cited in patent US11035860B2, “Auto-active and intracellular mutant of MET” (Stichting Katholieke Universiteit, priority 2014, dated 2021).
At least one structure is not confirmed: it was looked up by name or label, or the drawing left a doubt.

System: E98 glioma cells
Settings: previous study (Navis et al., 2013); cited from earlier work

COc1cc2nccc(Oc3ccc(NC(=O)C4(C(=O)Nc5ccc(F)cc5)CC4)cc3)c2cc1OC [cabozantinib]
potently inhibits: MET phosphorylation | cell proliferation | migration
